Here are results for two molecules from patent publication US20040132160A1 (University of Texas, published 2004).

No constants are given. Whether binding was seen depends on the method and setting. Binding seen in cells or lysates may run through a third protein. Some results given as binding are weak or reduced against the parent protein; the word gives no strength. Sequences can lack the tags named with a protein.

The test has as its target T1, full-length MURF-1 with C-terminal myc tag (murine) (UniProt Q9ERP3).
T1 sequence: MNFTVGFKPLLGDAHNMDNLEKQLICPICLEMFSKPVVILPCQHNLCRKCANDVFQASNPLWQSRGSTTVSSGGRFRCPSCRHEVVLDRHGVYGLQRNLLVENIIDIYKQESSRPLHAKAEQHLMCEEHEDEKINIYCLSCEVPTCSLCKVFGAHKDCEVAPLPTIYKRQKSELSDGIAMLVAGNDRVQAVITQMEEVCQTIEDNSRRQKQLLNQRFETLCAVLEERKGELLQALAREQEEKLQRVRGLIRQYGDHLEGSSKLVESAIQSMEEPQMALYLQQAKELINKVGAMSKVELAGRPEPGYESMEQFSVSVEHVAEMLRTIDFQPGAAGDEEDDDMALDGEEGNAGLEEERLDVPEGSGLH
Briefly: co-immunoprecipitation of 35S-labeled in vitro translated proteins with Flag antibody M2.

B1: MURF-1 deletion mutant N167 with N-terminal Flag tag (protein, not shown: small tags and cut ends)
chain: KRQKSELSDGIAMLVAGNDRVQAVITQMEEVCQTIEDNSRRQKQLLNQRFETLCAVLEERKGELLQALAREQEEKLQRVRGLIRQYGDHLEGSSKLVESAIQSMEEPQMALYLQQAKELINKVGAMSKVELAGRPEPGYESMEQFSVSVEHVAEMLRTIDFQPGAAGDEEDDDMALDGEEGNAGLEEERLDVPEGSGLH
Turning to B1, the binding result is on record as “binds”.

B2: MURF-1 deletion mutant N81 with N-terminal Flag tag (protein, not shown: small tags and cut ends)
chain: RHEVVLDRHGVYGLQRNLLVENIIDIYKQESSRPLHAKAEQHLMCEEHEDEKINIYCLSCEVPTCSLCKVFGAHKDCEVAPLPTIYKRQKSELSDGIAMLVAGNDRVQAVITQMEEVCQTIEDNSRRQKQLLNQRFETLCAVLEERKGELLQALAREQEEKLQRVRGLIRQYGDHLEGSSKLVESAIQSMEEPQMALYLQQAKELINKVGAMSKVELAGRPEPGYESMEQFSVSVEHVAEMLRTIDFQPGAAGDEEDDDMALDGEEGNAGLEEERLDVPEGSGLH
With B2, the binding result is “binds”.
